Measured values taken from article PMC12022026.

Target: T1, stimulator of interferon genes (STING), endogenous in mouse primary cardiomyocytes (mouse (endogenous in mouse primary cardiomyocytes)) (UniProt Q3TBT3)
T1 sequence: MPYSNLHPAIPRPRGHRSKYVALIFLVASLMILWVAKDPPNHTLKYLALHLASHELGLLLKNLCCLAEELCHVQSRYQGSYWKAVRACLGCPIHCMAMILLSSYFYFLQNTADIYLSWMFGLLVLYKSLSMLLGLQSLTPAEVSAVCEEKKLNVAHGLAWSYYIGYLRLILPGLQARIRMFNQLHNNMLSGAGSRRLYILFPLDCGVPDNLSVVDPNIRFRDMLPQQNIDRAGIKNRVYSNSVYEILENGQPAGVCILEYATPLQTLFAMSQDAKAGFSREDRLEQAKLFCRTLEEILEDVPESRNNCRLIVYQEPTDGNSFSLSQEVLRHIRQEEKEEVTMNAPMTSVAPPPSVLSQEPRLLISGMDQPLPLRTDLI
Assay: affinity purification with mass spectrometry; tandem affinity purification with STING protein affinity antibodies from MPCs post-A/R; silver staining and LC-MS/MS

binding: binds
Substance: glutathione peroxidase 4 (GPX4), endogenous in mouse primary cardiomyocytes

Results are given in words; binding and its absence hold for the method and conditions named. In cells and extracts the contact can be indirect. Here binding means that the protein was enriched with, or labelled near, the bait; the list need not be complete.
